According to the supplement of paper PMC10849652:
The list shows a part of the results.

Protein sequences, listed by entry. Tags and fused reporters are not part of them. Lines headed by an entry give the natural chain unless they say otherwise; changes in a name come on top.
UniProt O14929: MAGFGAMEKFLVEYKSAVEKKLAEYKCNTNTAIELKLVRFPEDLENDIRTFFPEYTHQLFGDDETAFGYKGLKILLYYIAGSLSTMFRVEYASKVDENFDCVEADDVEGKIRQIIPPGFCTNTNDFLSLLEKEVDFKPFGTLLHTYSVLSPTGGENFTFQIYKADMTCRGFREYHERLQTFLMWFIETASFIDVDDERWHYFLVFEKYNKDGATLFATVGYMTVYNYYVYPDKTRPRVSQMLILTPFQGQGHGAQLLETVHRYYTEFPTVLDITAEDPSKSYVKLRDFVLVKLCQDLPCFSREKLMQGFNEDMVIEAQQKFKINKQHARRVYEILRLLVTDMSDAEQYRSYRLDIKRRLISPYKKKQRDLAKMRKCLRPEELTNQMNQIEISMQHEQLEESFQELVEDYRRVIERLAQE
UniProt P09211: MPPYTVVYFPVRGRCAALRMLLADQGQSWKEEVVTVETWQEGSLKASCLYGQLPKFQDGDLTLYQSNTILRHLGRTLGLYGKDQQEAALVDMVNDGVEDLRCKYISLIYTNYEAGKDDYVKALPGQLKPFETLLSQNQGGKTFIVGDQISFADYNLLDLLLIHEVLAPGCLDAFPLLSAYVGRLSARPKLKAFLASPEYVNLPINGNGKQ
UniProt P09105: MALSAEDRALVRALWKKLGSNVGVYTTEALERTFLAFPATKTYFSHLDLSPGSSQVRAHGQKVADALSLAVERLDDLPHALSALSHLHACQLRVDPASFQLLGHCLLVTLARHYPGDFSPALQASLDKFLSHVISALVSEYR
UniProt P15170, whole entry, looked up: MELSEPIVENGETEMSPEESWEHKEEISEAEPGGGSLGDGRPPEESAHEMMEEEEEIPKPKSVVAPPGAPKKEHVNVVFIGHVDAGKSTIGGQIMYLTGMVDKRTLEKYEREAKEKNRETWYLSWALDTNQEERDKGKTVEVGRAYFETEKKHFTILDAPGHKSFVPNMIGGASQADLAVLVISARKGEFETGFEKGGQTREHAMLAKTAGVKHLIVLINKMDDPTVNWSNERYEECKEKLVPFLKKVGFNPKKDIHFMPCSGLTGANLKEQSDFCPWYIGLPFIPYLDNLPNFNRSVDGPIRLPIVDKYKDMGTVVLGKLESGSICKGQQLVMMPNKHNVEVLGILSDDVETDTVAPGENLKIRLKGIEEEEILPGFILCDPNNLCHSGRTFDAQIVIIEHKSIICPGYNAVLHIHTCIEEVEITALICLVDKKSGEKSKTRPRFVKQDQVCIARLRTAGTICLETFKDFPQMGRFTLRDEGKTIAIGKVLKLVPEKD
UniProt P69891: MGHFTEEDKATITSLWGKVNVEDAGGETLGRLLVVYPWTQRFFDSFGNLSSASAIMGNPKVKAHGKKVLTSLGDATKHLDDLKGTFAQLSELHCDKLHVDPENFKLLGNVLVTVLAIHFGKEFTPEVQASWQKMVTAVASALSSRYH
UniProt Q9BQS7: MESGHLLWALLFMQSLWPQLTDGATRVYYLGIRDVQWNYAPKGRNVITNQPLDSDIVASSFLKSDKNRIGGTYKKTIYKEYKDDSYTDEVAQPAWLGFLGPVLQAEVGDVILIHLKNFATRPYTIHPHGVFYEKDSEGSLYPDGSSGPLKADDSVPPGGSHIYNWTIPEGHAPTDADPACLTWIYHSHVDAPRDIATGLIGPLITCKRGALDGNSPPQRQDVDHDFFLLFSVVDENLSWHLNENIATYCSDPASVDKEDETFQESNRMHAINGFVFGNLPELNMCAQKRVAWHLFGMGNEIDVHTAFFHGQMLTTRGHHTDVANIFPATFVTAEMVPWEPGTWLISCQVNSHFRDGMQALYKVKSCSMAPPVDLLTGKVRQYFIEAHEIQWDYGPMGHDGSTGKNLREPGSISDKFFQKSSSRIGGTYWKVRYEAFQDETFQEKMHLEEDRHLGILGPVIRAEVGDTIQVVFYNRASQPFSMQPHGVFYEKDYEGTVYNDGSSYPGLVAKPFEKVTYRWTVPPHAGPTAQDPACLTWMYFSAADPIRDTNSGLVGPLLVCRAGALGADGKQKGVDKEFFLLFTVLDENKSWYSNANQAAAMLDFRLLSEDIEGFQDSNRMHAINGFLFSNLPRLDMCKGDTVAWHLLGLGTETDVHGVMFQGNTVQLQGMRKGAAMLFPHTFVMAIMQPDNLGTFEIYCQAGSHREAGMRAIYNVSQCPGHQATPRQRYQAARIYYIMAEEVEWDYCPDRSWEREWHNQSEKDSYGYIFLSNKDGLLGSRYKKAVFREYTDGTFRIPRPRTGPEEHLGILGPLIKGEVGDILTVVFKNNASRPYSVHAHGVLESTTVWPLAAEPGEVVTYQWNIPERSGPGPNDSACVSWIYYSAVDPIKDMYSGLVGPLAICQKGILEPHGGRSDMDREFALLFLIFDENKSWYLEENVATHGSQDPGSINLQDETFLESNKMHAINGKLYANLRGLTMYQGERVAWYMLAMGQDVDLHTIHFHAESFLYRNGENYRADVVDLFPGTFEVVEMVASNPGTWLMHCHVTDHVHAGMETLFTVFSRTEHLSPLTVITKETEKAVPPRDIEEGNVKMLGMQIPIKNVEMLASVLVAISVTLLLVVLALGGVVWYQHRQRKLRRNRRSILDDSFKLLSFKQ
UniProt P10412, whole entry, looked up: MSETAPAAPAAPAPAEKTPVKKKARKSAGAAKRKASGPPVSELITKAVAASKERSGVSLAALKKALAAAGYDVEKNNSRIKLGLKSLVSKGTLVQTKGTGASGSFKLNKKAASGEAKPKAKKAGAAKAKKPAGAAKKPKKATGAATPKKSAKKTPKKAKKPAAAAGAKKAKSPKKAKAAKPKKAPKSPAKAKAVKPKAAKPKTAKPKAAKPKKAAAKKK
UniProt A4D1E9: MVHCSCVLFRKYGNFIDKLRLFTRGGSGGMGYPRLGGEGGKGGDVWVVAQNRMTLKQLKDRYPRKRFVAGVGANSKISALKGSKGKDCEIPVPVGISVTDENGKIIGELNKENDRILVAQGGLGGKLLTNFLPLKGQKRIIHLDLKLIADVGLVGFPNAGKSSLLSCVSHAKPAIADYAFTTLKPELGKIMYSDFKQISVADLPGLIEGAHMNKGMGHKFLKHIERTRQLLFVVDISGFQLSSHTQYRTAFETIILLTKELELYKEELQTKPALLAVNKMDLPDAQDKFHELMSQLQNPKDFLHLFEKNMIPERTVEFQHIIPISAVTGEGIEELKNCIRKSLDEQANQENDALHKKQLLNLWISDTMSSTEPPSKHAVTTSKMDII
UniProt P78417: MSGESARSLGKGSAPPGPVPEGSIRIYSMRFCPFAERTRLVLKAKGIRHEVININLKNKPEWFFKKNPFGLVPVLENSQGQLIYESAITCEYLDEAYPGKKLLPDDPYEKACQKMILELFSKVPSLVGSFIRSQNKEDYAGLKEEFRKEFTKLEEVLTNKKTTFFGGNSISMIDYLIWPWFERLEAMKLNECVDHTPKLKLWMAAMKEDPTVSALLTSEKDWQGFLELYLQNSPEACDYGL
UniProt P02008: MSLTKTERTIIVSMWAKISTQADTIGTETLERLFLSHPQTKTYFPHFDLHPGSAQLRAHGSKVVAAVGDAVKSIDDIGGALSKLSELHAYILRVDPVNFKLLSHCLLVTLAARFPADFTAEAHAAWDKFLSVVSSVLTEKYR
UniProt P16402, whole entry, looked up: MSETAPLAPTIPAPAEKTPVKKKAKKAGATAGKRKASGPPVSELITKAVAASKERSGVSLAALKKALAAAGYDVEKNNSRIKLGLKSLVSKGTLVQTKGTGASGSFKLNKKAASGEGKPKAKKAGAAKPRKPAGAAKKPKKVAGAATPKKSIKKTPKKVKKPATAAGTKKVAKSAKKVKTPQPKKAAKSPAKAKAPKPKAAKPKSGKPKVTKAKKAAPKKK
UniProt P35269, whole entry, looked up: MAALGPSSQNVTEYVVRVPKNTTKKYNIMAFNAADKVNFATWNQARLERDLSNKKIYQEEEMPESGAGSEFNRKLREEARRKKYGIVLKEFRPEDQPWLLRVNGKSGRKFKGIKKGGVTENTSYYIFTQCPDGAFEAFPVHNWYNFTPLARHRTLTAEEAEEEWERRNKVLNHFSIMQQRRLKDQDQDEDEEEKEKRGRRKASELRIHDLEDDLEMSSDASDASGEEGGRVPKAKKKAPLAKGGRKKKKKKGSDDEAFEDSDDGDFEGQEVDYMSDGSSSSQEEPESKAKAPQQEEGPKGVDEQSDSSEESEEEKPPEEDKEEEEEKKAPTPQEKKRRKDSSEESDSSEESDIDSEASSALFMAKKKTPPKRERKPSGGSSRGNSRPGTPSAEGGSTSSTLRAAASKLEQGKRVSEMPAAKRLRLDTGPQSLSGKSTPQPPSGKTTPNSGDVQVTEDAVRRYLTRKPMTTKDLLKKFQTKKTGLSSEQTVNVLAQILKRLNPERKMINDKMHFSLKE
UniProt Q5GLZ8: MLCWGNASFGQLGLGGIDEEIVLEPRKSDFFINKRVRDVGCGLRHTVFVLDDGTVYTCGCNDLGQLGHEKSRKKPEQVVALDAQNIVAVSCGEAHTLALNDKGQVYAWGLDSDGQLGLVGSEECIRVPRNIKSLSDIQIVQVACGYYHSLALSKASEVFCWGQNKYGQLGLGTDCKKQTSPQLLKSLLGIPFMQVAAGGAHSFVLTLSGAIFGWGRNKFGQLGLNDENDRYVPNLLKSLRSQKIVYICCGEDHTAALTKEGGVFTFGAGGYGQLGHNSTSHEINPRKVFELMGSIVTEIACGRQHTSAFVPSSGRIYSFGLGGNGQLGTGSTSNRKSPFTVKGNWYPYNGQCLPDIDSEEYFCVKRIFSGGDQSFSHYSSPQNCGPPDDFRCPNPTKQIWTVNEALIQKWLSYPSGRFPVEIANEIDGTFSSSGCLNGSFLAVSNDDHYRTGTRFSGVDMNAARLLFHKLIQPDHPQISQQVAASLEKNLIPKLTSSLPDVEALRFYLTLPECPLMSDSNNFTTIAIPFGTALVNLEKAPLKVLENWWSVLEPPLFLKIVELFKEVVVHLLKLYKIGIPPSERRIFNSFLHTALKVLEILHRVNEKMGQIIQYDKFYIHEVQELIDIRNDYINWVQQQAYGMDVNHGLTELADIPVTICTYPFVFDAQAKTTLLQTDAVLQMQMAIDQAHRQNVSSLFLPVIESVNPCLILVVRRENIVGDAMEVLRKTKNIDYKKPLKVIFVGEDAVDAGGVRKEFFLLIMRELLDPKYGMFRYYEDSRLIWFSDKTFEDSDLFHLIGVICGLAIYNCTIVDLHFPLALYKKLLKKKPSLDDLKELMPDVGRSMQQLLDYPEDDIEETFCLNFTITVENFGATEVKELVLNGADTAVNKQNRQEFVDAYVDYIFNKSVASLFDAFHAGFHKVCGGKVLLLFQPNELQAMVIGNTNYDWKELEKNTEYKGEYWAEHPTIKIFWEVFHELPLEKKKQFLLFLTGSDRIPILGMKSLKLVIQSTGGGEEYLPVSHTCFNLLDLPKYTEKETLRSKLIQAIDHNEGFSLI
UniProt O00178: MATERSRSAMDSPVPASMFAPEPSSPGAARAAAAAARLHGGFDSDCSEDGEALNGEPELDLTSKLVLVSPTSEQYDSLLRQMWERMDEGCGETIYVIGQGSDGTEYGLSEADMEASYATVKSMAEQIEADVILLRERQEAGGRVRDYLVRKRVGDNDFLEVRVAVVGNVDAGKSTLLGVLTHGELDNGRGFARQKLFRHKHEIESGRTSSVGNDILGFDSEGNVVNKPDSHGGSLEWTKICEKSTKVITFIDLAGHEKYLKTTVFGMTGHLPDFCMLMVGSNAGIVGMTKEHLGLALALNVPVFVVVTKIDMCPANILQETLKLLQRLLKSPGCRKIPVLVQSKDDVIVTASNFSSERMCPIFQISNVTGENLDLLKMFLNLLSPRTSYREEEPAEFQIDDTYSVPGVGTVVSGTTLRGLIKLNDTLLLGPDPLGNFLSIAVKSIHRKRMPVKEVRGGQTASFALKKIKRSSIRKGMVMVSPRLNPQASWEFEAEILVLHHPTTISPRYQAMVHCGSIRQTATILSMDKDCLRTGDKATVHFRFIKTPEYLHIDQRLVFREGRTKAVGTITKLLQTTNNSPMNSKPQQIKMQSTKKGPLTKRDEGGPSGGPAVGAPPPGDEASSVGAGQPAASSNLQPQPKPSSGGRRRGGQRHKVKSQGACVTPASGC
UniProt P29084: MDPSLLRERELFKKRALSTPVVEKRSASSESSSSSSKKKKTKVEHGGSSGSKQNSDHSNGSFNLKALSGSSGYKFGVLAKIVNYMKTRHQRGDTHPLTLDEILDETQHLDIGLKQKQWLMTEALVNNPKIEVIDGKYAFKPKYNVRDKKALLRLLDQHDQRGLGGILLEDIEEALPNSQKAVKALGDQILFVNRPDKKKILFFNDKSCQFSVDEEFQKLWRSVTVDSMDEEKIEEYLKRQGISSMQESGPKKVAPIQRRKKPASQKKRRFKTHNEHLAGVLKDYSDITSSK
UniProt Q16774: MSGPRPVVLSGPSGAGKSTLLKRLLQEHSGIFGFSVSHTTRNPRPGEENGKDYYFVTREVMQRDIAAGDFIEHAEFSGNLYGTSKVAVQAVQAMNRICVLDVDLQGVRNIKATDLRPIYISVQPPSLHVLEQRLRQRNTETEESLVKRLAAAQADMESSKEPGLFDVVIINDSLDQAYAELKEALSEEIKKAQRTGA

Tests used:
Assay in all cases: log2 fold change, soluble protein after heating vs DMSO (PISA); higher = thermal stabilisation; K562 cells, 10 uM, 30 min; active = over 0.2 and 3.5 SD of the protein, either way, in both replicates (recomputed)
[1] = compound: C1=CC=C(C=C1)[C@H](COC2=CC3=C(C=C2)NC(=O)N3)NC(=O)C4=CC=CN(C4=O)CC5=CC(=C(C=C5)F)F
Summary of the method: (§1)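 K562 cells at 2×10^6 cells/mL were given 10 μM compound for 30 min. Aliquots then went through 3 min of heating across 48°C-58°C, were pooled, and were extracted in PBS with 0.5% NP-40 at 4°C, and the supernatant after 21,000xg for 90 min was quantified by TMTpro 16plex LC-MS/MS with channel sums equalised. Thermal stability relative to control samples, from duplicates, is given as log2 fold change.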

[2] = compound: CC1=C(SC2=C1C(=N[C@H](C3=NN=C(N32)C)CC(=O)N)C4=CC=C(C=C4)Cl)C
Summary of the method: as §1

[3] = compound: CC1=C2C(=CC=C1)N=C(N(C2=O)C3=CC=CC=C3C)CN4C=NC5=C(N=CN=C54)N
Summary of the method: as §1

[4] = compound: Cc1sc2c(c1C)C(c1ccc(Cl)cc1)=N[C@@H](CC(=O)OC(C)(C)C)c1nnc(C)n1-2
Summary of the method: as §1

[5] = compound: c1ccc([C@@H]2C[C@H]2NC2CCNCC2)cc1
Summary of the method: as §1

Measured: log2 fold change

HAT1 (UniProt O14929)
inactive: [1] 0.009 | [2] -0.005 | [3] 0.007 | [4] -0.101 | [5] -0.05

GSTP1 (UniProt P09211)
inactive: [1] -0.013 | [2] 0.039 | [3] 0.005 | [4] -0.013 | [5] -0.016

HBQ1 (UniProt P09105)
inactive: [1] 0.023 | [2] 0.135 | [3] 0.092 | [4] -0.147 | [5] -0.037

GSPT1 isoform 3 (UniProt P15170)
inactive: [1] -0.023 | [2] 0.009 | [3] 0.08 | [4] -0.036 | [5] -0.053

HBG1 (UniProt P69891)
inactive: [1] 0.034 | [2] 0.152 | [3] 0.043 | [4] -0.113 | [5] -0.035

HEPH isoform 3 (UniProt Q9BQS7)
inactive: [1] 0.005 | [2] 0.043 | [3] -0.023 | [4] 0.029 | [5] -0.002

H1-4 (UniProt P10412)
inactive: [1] 0.177 | [2] -0.379 | [3] -0.27 | [4] 0.067 | [5] 0

GTPBP6 (UniProt O43824)
inactive: [1] 0.038 | [2] 0.007 | [3] 0.012 | [4] -0.062 | [5] -0.034

GTPBP10 (UniProt A4D1E9)
inactive: [1] -0.231 | [2] -0.087 | [3] 0.04 | [4] 0.013 | [5] 0.037

GSTO1 (UniProt P78417)
inactive: [1] -0.024 | [2] 0.028 | [3] -0.002 | [4] -0.013 | [5] 0.007

H3-3A (UniProt P84243)
inactive: [1] -0.004 | [2] 0.053 | [3] 0.154 | [4] -0.058 | [5] -0.102

GTF2H3 (UniProt Q13889)
inactive: [1] 0.062 | [2] 0.065 | [3] 0.099 | [4] 0.048 | [5] 0.017

HBZ (UniProt P02008)
inactive: [1] 0.047 | [2] 0.191 | [3] 0.091 | [4] -0.132 | [5] -0.009

HAGH (UniProt Q16775)
inactive: [1] 0.015 | [2] 0.043 | [3] 0.016 | [4] -0.02 | [5] -0.088

HEMGN (UniProt Q9BXL5)
inactive: [1] 0.011 | [2] -0.003 | [3] -0.004 | [4] -0.006 | [5] 0.013

HBE1 (UniProt P02100)
inactive: [1] -0.036 | [2] 0.111 | [3] 0.026 | [4] -0.095 | [5] -0.07

HBG2 (UniProt P69892)
inactive: [1] 0.007 | [2] 0.094 | [3] -0.008 | [4] -0.085 | [5] -0.019

H1-3 (UniProt P16402)
inactive: [1] 0.139 | [2] -0.288 | [3] -0.299 | [4] 0.025 | [5] 0

Retrieved one by one from the entries so far (2):
HBG2 (UniProt P69892)
inactive: [1] 0.007 | [2] 0.094 | [3] -0.008 | [4] -0.085 | [5] -0.019

H1-3 (UniProt P16402)
inactive: [1] 0.139 | [2] -0.288 | [3] -0.299 | [4] 0.025 | [5] 0

The list continues:

GSTM2 (UniProt P28161)
inactive: [1] -0.034 | [2] 0.247 | [3] 0.038 | [4] -0.039 | [5] -0.016

GTF2F1 (UniProt P35269)
inactive: [1] 0.009 | [2] 0.012 | [3] 0.052 | [4] -0.037 | [5] -0.04

HERC4 (UniProt Q5GLZ8)
inactive: [1] -0.005 | [2] 0.082 | [3] 0.035 | [4] -0.033 | [5] 0.007

H1-5 (UniProt P16401)
inactive: [1] 0.138 | [2] -0.354 | [3] -0.261 | [4] 0.035 | [5] 0

GTPBP1 (UniProt O00178)
inactive: [1] 0.002 | [2] 0.033 | [3] 0.007 | [4] 0.027 | [5] -0.016

GTF2E2 (UniProt P29084)
inactive: [1] -0.009 | [2] 0.043 | [3] 0.126 | [4] -0.058 | [5] 0.012

GUK1 isoform 2 (UniProt Q16774)
inactive: [1] -0.042 | [2] 0.003 | [3] 0.084 | [4] -0.021 | [5] 0.031
